In PubChem BioAssay (NCATS):
The inconclusive results got no clear call from the source; some entries with a clear call stand among them for comparison. Where the call is inconclusive, the potency comes from a doubtful curve fit. Calls of active or inactive are those of the source. Calls follow the shape of the dose curve; as a rule, active = well fitted inhibition curve with a large enough effect; inconclusive = small, poorly fitted or top-dose-only effect; inactive = no such curve, though single readings can be large or run the other way.

These compounds were tested against Retinaldehyde dehydrogenase 3 (Homo sapiens) (UniProt P47895) (assay: qHTS for Inhibitors of the Aldehyde Dehydrogenase Family (ALDH1A3) Validation screen (AID 2061312; also: nearly all actives have a fitted effect of over 45% in size)). Conditions: ALDH1A3 enzyme inhibition qHTS validation, fluorescence; series mostly up to 84.7 µM.
Potency is read from the fitted curve at half-maximal effect.

Potency, inactive:
O=C(Nc1ccncc1)c1cc([N+](=O)[O-])ccc1Cl, COc1cc(-c2cn(C3CCc4c(F)cccc4N(CC(F)(F)F)C3=O)nn2)ccc1-n1cnc(C)c1 (stereo not drawn), Cc1nn(-c2ccccc2)c(C)c1/C=N/N1CCN(Cc2ccccc2)CC1, CC(=O)O[C@H]1Cc2ccccc2N(C(N)=O)c2ccccc21

Potency, inconclusive:
CCCCC(=O)N(Cc1ccc(-c2ccccc2-c2nn[nH]n2)cc1)C(C(=O)O)C(C)C (stereo not drawn) 2510 nM [inhibitor, full curve], NC(Cc1ccc(Cl)cc1)C(=O)O (stereo not drawn) 708 nM [inhibitor, full curve, poor fit], Oc1cc2c(cc1O)C(c1ccccc1)CNCC2 (stereo not drawn) 25100 nM [inhibitor, single point], O=c1[nH]c(=O)c2nc3ccccc3nc2[nH]1 447 nM [inhibitor, full curve, poor fit]
